# Test results reported in the supplement of paper PMC10849652.
# The chains behind the UniProt entries cited, without tags or fusion partners. Where a name states a change or a piece, a line headed by the entry shows the natural chain unless it says otherwise.
# UniProt Q16850: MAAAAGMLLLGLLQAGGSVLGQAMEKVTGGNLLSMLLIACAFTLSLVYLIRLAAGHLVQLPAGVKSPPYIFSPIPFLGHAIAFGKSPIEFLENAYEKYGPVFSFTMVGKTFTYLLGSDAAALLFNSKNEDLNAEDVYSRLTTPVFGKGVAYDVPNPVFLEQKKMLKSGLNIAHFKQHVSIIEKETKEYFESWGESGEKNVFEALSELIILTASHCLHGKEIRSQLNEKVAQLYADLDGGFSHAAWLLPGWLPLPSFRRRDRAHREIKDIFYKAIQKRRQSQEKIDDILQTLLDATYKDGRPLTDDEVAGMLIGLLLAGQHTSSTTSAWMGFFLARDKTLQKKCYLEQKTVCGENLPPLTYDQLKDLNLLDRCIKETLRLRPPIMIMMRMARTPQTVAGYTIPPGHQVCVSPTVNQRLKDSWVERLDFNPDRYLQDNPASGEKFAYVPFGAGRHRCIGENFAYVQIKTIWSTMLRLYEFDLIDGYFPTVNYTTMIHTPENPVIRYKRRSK
# UniProt O00273: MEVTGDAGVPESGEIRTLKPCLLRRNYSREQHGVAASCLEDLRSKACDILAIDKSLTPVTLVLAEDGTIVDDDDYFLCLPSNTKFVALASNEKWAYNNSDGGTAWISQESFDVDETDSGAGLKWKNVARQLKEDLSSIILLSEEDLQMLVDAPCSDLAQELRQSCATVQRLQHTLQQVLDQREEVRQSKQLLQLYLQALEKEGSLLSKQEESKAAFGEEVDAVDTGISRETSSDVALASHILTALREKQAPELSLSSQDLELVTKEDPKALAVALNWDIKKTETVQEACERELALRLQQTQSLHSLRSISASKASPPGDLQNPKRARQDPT
# UniProt Q96EP5: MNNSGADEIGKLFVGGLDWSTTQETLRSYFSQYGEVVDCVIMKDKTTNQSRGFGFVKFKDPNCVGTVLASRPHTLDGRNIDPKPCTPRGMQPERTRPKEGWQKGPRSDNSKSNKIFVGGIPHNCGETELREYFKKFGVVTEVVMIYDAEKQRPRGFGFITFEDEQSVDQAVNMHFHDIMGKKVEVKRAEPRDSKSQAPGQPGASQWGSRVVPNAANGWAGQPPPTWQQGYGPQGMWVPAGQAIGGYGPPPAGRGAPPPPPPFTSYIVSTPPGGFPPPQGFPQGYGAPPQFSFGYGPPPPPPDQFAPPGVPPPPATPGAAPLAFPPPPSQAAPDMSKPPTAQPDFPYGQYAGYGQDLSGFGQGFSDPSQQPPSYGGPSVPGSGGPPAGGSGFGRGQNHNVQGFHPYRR
# UniProt Q9NY93: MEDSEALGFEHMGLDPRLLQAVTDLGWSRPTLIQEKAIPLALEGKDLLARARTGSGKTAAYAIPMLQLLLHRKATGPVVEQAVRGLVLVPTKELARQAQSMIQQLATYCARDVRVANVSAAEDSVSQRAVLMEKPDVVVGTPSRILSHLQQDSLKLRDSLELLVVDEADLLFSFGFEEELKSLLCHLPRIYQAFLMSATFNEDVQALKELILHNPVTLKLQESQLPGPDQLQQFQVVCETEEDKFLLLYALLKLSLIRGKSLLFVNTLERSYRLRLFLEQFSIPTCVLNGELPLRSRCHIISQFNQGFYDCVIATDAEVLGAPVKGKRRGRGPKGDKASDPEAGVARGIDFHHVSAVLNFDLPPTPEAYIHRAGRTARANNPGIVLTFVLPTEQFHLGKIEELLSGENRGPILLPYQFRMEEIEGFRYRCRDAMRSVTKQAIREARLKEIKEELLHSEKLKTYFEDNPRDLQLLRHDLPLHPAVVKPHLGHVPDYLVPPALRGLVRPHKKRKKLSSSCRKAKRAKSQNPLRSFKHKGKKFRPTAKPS
# UniProt Q9BUQ8: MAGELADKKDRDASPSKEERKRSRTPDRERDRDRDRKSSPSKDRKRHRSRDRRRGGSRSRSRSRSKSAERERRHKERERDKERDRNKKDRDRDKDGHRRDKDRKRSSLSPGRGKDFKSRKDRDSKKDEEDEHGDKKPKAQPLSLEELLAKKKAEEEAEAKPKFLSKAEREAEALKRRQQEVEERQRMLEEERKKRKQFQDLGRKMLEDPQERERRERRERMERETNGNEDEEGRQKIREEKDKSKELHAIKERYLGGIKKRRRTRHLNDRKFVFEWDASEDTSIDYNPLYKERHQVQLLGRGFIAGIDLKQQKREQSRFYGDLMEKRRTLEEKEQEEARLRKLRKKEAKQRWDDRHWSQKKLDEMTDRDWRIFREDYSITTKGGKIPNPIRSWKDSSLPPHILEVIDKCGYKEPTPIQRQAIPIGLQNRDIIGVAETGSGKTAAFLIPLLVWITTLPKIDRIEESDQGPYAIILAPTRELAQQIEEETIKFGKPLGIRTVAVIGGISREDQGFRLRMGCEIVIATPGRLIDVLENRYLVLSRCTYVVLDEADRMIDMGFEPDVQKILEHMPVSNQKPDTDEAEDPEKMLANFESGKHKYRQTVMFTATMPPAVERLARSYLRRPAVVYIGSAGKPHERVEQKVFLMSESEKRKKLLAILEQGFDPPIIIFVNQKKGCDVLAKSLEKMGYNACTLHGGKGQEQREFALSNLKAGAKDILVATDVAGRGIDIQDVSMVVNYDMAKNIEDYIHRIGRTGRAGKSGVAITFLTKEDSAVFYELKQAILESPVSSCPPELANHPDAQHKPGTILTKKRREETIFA
# UniProt Q13561, whole entry, looked up: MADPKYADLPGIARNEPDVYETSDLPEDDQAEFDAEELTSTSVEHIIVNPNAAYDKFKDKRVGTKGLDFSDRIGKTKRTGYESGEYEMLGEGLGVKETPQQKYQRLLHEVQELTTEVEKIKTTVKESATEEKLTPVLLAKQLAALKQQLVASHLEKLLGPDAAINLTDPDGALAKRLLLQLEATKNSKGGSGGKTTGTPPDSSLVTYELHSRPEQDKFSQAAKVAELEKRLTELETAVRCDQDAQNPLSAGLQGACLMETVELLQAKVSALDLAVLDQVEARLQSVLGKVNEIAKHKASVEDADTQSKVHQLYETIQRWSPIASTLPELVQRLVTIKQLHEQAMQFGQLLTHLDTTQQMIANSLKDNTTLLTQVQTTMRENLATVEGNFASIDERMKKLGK
# UniProt Q8NHQ9: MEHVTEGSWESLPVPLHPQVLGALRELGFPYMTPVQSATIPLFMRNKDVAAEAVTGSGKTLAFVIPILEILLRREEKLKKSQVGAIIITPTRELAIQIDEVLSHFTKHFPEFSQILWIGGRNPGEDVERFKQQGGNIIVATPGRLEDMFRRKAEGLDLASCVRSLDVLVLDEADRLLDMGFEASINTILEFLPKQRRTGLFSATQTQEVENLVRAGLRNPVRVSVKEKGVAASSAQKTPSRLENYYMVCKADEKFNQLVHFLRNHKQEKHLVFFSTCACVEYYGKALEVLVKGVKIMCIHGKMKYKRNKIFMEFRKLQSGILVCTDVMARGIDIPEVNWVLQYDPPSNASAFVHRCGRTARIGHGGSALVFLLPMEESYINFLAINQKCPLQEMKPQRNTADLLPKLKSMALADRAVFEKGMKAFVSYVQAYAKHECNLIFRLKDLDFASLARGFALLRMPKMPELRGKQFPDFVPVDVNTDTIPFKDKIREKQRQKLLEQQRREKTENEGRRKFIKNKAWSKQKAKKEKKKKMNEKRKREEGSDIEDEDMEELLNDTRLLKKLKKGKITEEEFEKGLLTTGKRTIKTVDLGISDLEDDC
# UniProt P17844: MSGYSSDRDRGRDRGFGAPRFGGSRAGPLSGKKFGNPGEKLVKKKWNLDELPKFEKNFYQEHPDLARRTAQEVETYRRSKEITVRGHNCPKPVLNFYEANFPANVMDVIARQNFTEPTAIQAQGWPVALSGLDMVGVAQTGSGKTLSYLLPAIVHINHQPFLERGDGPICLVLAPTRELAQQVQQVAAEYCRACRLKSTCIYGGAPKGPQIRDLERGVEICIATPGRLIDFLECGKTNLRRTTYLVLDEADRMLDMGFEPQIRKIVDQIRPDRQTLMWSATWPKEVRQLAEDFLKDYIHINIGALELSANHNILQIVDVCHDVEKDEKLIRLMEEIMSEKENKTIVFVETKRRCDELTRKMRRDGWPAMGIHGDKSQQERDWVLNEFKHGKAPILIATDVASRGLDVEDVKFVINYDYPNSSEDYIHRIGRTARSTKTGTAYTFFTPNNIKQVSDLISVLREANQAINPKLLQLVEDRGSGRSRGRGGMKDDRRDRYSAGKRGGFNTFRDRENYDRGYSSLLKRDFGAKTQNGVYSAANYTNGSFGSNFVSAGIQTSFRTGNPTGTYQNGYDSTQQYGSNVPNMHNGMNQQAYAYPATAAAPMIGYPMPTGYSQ
# UniProt O00399, whole entry, looked up: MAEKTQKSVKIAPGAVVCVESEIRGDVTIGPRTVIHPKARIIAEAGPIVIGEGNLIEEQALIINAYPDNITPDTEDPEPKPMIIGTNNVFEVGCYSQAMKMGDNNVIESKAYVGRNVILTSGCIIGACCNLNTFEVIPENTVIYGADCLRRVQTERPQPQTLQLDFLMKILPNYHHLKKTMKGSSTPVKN
# UniProt Q16698: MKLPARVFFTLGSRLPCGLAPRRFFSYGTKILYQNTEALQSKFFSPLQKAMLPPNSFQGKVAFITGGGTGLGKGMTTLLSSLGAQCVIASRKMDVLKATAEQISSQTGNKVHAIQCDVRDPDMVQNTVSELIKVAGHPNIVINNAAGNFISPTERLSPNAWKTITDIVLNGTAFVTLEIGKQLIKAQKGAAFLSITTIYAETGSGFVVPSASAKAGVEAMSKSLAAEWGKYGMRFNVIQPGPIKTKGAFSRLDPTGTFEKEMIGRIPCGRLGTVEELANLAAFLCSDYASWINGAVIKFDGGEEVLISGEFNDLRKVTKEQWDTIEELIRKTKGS
# UniProt Q8TCE6, whole entry, looked up: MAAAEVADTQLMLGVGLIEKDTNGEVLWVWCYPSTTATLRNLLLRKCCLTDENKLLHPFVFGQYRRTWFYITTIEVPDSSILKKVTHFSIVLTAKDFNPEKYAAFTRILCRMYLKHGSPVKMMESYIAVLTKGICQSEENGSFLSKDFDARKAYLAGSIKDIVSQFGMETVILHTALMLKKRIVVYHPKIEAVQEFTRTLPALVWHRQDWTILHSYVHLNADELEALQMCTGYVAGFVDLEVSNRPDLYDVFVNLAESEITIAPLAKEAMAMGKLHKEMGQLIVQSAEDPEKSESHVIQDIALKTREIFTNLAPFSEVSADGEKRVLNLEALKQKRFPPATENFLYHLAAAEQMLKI
# UniProt Q14203, whole entry, looked up: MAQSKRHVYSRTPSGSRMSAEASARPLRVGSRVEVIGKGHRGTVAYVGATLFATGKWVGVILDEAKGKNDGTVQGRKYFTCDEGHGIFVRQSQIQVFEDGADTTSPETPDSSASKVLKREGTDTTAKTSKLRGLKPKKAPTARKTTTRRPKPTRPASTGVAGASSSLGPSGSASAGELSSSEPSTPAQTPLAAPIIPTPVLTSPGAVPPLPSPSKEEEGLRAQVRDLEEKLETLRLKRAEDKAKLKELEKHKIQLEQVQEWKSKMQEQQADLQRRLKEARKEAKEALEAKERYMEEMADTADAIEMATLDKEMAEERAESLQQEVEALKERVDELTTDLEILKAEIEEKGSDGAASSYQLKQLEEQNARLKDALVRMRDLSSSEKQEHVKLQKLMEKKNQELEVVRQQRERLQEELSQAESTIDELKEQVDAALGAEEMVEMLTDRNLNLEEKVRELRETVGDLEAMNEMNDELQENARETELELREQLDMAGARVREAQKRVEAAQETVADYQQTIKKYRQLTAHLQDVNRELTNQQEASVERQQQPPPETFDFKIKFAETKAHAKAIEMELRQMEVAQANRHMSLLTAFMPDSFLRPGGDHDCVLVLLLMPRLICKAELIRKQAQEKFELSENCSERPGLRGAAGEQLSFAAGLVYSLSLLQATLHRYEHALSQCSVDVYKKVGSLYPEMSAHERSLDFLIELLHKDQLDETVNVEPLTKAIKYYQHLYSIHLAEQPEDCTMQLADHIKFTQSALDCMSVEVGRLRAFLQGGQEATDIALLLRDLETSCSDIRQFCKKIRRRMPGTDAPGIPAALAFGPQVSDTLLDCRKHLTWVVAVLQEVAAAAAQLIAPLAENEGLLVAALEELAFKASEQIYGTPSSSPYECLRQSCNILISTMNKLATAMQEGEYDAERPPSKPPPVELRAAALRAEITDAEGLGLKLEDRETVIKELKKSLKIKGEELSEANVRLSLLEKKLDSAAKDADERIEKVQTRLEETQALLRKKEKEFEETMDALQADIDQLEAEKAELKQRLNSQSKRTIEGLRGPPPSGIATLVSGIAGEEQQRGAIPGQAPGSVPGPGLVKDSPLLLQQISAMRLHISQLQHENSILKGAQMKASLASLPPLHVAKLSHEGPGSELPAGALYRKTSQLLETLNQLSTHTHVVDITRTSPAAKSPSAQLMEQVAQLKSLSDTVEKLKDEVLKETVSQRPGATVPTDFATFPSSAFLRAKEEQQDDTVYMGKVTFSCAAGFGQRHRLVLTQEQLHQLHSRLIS
# UniProt Q9BTE1, whole entry, looked up: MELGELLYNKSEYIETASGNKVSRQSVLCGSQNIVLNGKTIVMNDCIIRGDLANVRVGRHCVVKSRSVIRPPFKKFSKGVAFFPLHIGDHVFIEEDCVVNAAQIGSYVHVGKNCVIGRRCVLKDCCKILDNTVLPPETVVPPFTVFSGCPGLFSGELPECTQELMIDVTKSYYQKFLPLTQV
# The other results are listed elsewhere or left out.
# Key:
# Assay in all cases: log2 fold change, soluble protein after heating vs DMSO (PISA); higher = thermal stabilisation; K562 lysate, 10 uM; active = over 0.2 and 3.5 SD of the protein, either way, in both replicates (recomputed)
# nilotinib = compound: Cc1cn(-c2cc(NC(=O)c3ccc(C)c(Nc4nccc(-c5cccnc5)n4)c3)cc(C(F)(F)F)c2)cn1 [nilotinib]
# Method in brief: (§1)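 K562 pellets were dounce-homogenised in PBS pH 7.4 containing 1 mM MgCl2, and the crude extract, at 1 mg/mL protein, was exposed to 10 μM compound for 30 min. Aliquots were heated for 3 min across 48°C-58°C, pooled, brought to 0.5% NP-40 at 4°C and spun at 21,000xg for 90 min, with the supernatant taken as soluble protein. TMTpro 16plex LC-MS/MS with equalised channel sums quantified that protein. Values are log-two fold changes in thermal stability relative to solvent controls, taken from duplicates.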
# [1] = compound: Cc1nc(Nc2n[nH]c3c2CN(C(=O)N[C@H](CN(C)C)c2ccccc2)C3(C)C)c2sccc2n1
# Method in brief: as §1
# dasatinib = compound: Cc1nc(Nc2ncc(C(=O)Nc3c(C)cccc3Cl)s2)cc(N2CCN(CCO)CC2)n1 [dasatinib]
# Method in brief: as §1
# [2] = compound: Cc1ncc(-c2ccnc(Nc3ccc(S(C)(=O)=O)cc3)n2)n1C(C)C
# Method in brief: as §1
# [3] = compound: Cn1cc(-c2ccc3c(c2)CCN3C(=O)Cc2cccc(C(F)(F)F)c2)c2c(N)ncnc21
# Method in brief: as §1
# quisinostat = compound: Cn1cc(CNCC2CCN(c3ncc(C(=O)NO)cn3)CC2)c2ccccc21 [quisinostat]
# Method in brief: as §1
# tipifarnib = compound: Cn1cncc1[C@@](N)(c1ccc(Cl)cc1)c1ccc2c(c1)c(-c1cccc(Cl)c1)cc(=O)n2C [tipifarnib]
# Method in brief: as §1
# [4] = compound: NC(=O)Nc1cc(-c2cccc(F)c2)sc1C(=O)N[C@H]1CCCNC1
# Method in brief: as §1
# [5] = compound: NC(=O)c1cnc(N[C@@H]2CCCC[C@@H]2N)nc1Nc1cccc(-n2nccn2)c1
# Method in brief: as §1
# [6] = compound: NC1(c2ccc(-c3nc4ccn5c(=O)[nH]nc5c4cc3-c3ccccc3)cc2)CCC1
# Method in brief: as §1
# [7] = compound: NCC(=O)Nc1ccc(-n2nc(C(F)(F)F)cc2-c2ccc3c(ccc4ccccc43)c2)cc1
# Method in brief: as §1
# vorinostat = compound: O=C(CCCCCCC(=O)Nc1ccccc1)NO [vorinostat]
# Method in brief: as §1
# silmitasertib = compound: O=C(O)c1ccc2c(c1)nc(Nc1cccc(Cl)c1)c1ccncc12 [silmitasertib]
# Method in brief: as §1
# [8] = compound: O=C1NC(=O)C(c2cnc3ccccn23)=C1c1cn2c3c(cc(F)cc13)CN(C(=O)N1CCCCC1)CC2
# Method in brief: as §1
# entospletinib = compound: c1cn2cc(-c3ccc4cn[nH]c4c3)nc(Nc3ccc(N4CCOCC4)cc3)c2n1 [entospletinib]
# Method in brief: as §1
Target,log2 fold change (nilotinib),log2 fold change [1],log2 fold change (dasatinib),log2 fold change [2],log2 fold change [3],log2 fold change (quisinostat),log2 fold change (tipifarnib),log2 fold change [4],log2 fold change [5],log2 fold change [6],log2 fold change [7],log2 fold change (vorinostat),log2 fold change (silmitasertib),log2 fold change [8],log2 fold change (entospletinib)
DCP2 (UniProt Q8IU60),inactive: -0.065,inactive: -0.051,inactive: 0.009,inactive: 0.032,inactive: -0.018,inactive: -0.094,inactive: -0.012,inactive: 0.014,inactive: 0.03,inactive: 0.024,inactive: -0.02,active: -0.446,inactive: -0.033,inactive: 0.085,inactive: -0.001
DCAF7 (UniProt P61962),inactive: 0.021,inactive: 0.019,inactive: -0.019,inactive: 0.02,inactive: -0.009,inactive: -0.043,inactive: -0.013,inactive: 0.066,inactive: -0.008,inactive: -0.002,inactive: -0.003,inactive: -0.143,inactive: 0.088,inactive: -0.019,inactive: -0.01
CYP51A1 (UniProt Q16850),inactive: 0.124,inactive: -0.026,inactive: 0.048,inactive: 0.034,inactive: 0.083,inactive: -0.021,active: 0.664,inactive: -0.016,inactive: -0.009,inactive: -0.081,inactive: -0.065,inactive: 0.017,inactive: -0.084,active: 0.864,inactive: 0.024
DFFA isoform 2 (UniProt O00273),inactive: 0.084,inactive: -0.064,inactive: 0.038,inactive: 0.09,inactive: 0.003,inactive: -0.013,inactive: 0.009,inactive: 0.065,inactive: -0.253,inactive: -0.122,inactive: 0.095,inactive: 0.212,inactive: -0.061,inactive: -0.025,
DBNL isoform 3 (UniProt Q9UJU6),inactive: 0.019,inactive: -0.009,inactive: 0.03,inactive: 0.007,inactive: -0.038,inactive: 0.095,inactive: 0.019,inactive: -0.025,inactive: -0.006,inactive: -0.021,inactive: 0.012,inactive: 0.023,inactive: -0.009,inactive: 0.061,inactive: -0.023
DDX59 (UniProt Q5T1V6),inactive: -0.009,inactive: 0.006,inactive: 0.012,inactive: -0.005,inactive: -0.013,inactive: 0.018,inactive: -0.02,inactive: -0.009,inactive: -0.011,inactive: 0.054,inactive: -0.033,inactive: -0.213,inactive: -0.054,inactive: 0.001,inactive: 0.023
DAZAP1 (UniProt Q96EP5),inactive: -0.066,inactive: 0.04,inactive: 0.015,inactive: 0.044,inactive: -0.016,inactive: 0.118,inactive: -0.039,inactive: 0.005,inactive: 0.01,inactive: -0.008,inactive: 0.032,inactive: -0.031,inactive: 0.014,inactive: 0.032,inactive: -0.001
DEK (UniProt P35659),inactive: 0.007,inactive: -0.009,inactive: 0.016,inactive: 0.007,inactive: 0.011,inactive: 0.008,inactive: 0.004,inactive: -0.025,inactive: -0.009,inactive: -0.007,inactive: 0.016,inactive: 0.019,inactive: -0.018,inactive: 0.026,inactive: 0.019
DDX56 (UniProt Q9NY93),inactive: -0.053,inactive: -0.03,inactive: -0.043,inactive: 0.016,inactive: -0.014,inactive: -0.053,inactive: 0.012,inactive: 0.018,inactive: 0.005,inactive: -0.003,inactive: 0.026,inactive: -0.048,inactive: 0.005,inactive: -0.019,inactive: 0.031
DAPK1 isoform 3 (UniProt P53355),inactive: -0.061,inactive: 0.017,inactive: -0.052,inactive: -0.146,inactive: -0.049,inactive: -0.135,inactive: 0.056,active: 0.812,inactive: -0.103,inactive: -0.075,inactive: 0.09,inactive: -0.477,active: 0.833,inactive: 0.004,
DDX23 (UniProt Q9BUQ8),inactive: -0.013,inactive: 0.016,inactive: -0.012,inactive: 0.004,inactive: -0.01,inactive: 0.021,inactive: -0.02,inactive: 0.021,inactive: -0.009,inactive: -0.025,inactive: -0.012,inactive: -0.142,inactive: 0.037,inactive: -0.006,inactive: 0.033
DAGLB (UniProt Q8NCG7),inactive: 0.029,inactive: -0.064,inactive: -0.043,inactive: -0.158,inactive: 0.036,inactive: 0.025,inactive: 0.066,inactive: 0.059,inactive: 0.04,inactive: 0.034,inactive: 0.024,inactive: 0.062,inactive: 0.006,inactive: -0.027,inactive: 0.043
DCTN2 isoform 3 (UniProt Q13561),inactive: 0.018,inactive: -0.041,inactive: -0.027,inactive: -0.032,inactive: 0.019,inactive: -0.008,inactive: -0.001,inactive: -0.053,inactive: -0.007,inactive: -0.004,inactive: -0.008,inactive: 0.087,inactive: -0.009,inactive: -0.02,inactive: -0.01
DDX55 (UniProt Q8NHQ9),inactive: -0.014,inactive: 0.03,inactive: 0.006,inactive: 0,inactive: 0.074,inactive: -0.021,inactive: -0.038,inactive: 0.049,inactive: 0.032,inactive: -0.046,inactive: -0.036,inactive: -0.147,inactive: 0.059,inactive: -0.004,inactive: -0.005
DDX5 (UniProt P17844),inactive: -0.031,inactive: 0.025,inactive: 0.009,inactive: -0.017,inactive: 0.036,inactive: 0.035,inactive: 0,inactive: -0.048,inactive: -0.008,inactive: -0.004,inactive: -0.007,inactive: -0.187,inactive: 0.023,inactive: -0.119,inactive: 0.027
DCTN6 (UniProt O00399),inactive: -0.05,inactive: 0.023,inactive: 0.005,inactive: 0.048,inactive: -0.01,inactive: -0.007,inactive: -0.04,inactive: -0.004,inactive: -0.044,inactive: -0.046,inactive: 0.017,inactive: 0.112,inactive: 0.023,inactive: 0.026,inactive: -0.041
DECR1 (UniProt Q16698),inactive: -0.008,inactive: 0.034,inactive: -0.056,inactive: 0.007,inactive: 0.02,inactive: 0.084,inactive: 0.04,inactive: -0.01,inactive: -0.017,inactive: 0.028,inactive: -0.016,inactive: 0.128,inactive: 0,inactive: -0.017,inactive: 0.005
DCTN2 (UniProt Q13561),inactive: -0.211,inactive: 0.195,inactive: -0.057,inactive: 0.067,inactive: -0.133,inactive: -0.007,inactive: 0,inactive: 0.053,inactive: -0.025,inactive: -0.145,inactive: -0.008,inactive: 0.255,inactive: -0.082,inactive: 0.1,inactive: 0.017
DENND10 (UniProt Q8TCE6),inactive: -0.022,inactive: 0.052,inactive: -0.033,inactive: -0.064,inactive: 0.018,inactive: -0.091,inactive: 0.016,inactive: 0.16,inactive: -0.013,inactive: -0.036,inactive: 0.032,inactive: -0.113,inactive: -0.015,inactive: -0.055,inactive: 0.012
DCTN1 isoform 4 (UniProt Q14203),inactive: 0.304,inactive: -0.331,inactive: -0.163,inactive: -0.288,inactive: -0.051,inactive: -0.064,inactive: -0.064,inactive: 0.074,inactive: 0.139,inactive: 0.169,inactive: 0.144,inactive: -0.143,inactive: -0.027,inactive: 0.011,inactive: -0.085
DCTN5 (UniProt Q9BTE1),inactive: -0.002,inactive: -0.065,inactive: 0.083,inactive: 0.037,inactive: 0.002,inactive: 0.019,inactive: -0.026,inactive: 0.035,inactive: 0.002,inactive: -0.001,inactive: -0.016,inactive: 0.054,inactive: 0.023,inactive: -0.014,inactive: -0.127

# As a short view, some entries already given:
Target,log2 fold change (nilotinib),log2 fold change [1],log2 fold change (dasatinib),log2 fold change [2],log2 fold change [3],log2 fold change (quisinostat),log2 fold change (tipifarnib),log2 fold change [4],log2 fold change [5],log2 fold change [6],log2 fold change [7],log2 fold change (vorinostat),log2 fold change (silmitasertib),log2 fold change [8],log2 fold change (entospletinib)
DENND10 (UniProt Q8TCE6),inactive: -0.022,inactive: 0.052,inactive: -0.033,inactive: -0.064,inactive: 0.018,inactive: -0.091,inactive: 0.016,inactive: 0.16,inactive: -0.013,inactive: -0.036,inactive: 0.032,inactive: -0.113,inactive: -0.015,inactive: -0.055,inactive: 0.012
DCTN1 isoform 4 (UniProt Q14203),inactive: 0.304,inactive: -0.331,inactive: -0.163,inactive: -0.288,inactive: -0.051,inactive: -0.064,inactive: -0.064,inactive: 0.074,inactive: 0.139,inactive: 0.169,inactive: 0.144,inactive: -0.143,inactive: -0.027,inactive: 0.011,inactive: -0.085
